From paper PMC8703407
These are yes or no findings as the source states them, for the method shown. Binding seen in cells or lysates may run through a third protein.

Amino acid sequences for entries named in this document (tags omitted).
UniProt Q9HC16: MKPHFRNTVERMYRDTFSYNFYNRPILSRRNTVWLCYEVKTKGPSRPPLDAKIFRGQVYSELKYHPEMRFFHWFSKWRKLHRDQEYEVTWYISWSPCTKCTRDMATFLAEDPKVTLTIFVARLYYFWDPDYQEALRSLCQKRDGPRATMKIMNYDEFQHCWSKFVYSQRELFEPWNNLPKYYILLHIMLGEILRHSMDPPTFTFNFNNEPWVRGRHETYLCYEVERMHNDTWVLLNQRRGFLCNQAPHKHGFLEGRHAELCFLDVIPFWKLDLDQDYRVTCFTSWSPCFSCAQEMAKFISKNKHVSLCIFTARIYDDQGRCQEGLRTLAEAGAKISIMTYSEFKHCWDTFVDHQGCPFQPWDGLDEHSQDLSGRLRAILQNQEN

Biological target: APOBEC3G HA (UniProt Q9HC16)
Test: co-IP; anti-HA beads, lysate of HEK293T cells co-transfected with HA-tagged and His-tagged A3G, sample treated with RNase A (70 μg/mL); blot with anti-His

**Q.** How did the binding turn out when APOBEC3G HA (from UniProt Q9HC16 1-384) was run?
**A.** Its binding is “no binding (condition: with RNase A treatment)”.
